Experimental data: PubChem BioAssay AID1259285 (Sanger Institute, 2017)

Purpose: 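Kinase knock-downs that reduce colorectal cancer cell viability or act with drugs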 (primary screen)
Cell system: human HCC56 colorectal cancer cells
Knock-down reagent: siRNA pool against human genes
Treatment: DMSO vehicle, or anchor drug BYL719 at 1 µM, cetuximab at 5 µg/ml, or trametinib at 10 nM
Detection: 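Replicate-averaged viability relative to non-targeting siRNA, expressed as a robust z-score from controls, plus a synergy score for each of three anchor drugs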
Scale: viability robust z-score, no drug: higher = more viable cells, weaker knock-down effect
Call rule: 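Essential when the drug-free viability robust z-score falls below -3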
Calls: active = essential without drug; inactive = no change without drug
Shown is one part, drawn at random, of 794 reagents. 20 of all reagents (2.5%) count as active. 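Calls rest on the drug-free arm alone and ignore synergy scores; viability ratios seem to be capped at 1.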 A number with no mark means an inactive call. Further read-outs or replicates are left out here. Reagent sequences are not shown. The record does not give: the amount of reagent, the time to read-out.

Gene	viability robust z-score, no drug
DLG3	0.458
NUP62	0.458
FXR1	0.458
CDK4	0.458
MPP3	0.309
CHKB	0.458
PIP4K2B	0.458
EPHB1	0.458
STK4	0.458
RPS6KB1	-1.47
PRKAR2B	-2.2
PRKAR2A	0.458
CDK3	0.458
MAPK11	0.458
STK39	0.458
SPHK2	0.458
MAP3K11	0.458
BUB1B	-0.384
POLR2B	-6.29 (active)
PLK2	0.458
KCNH2	-0.0369
SPHK1	0.458
MGA	0.139
MYLK4	0.211
NUAK1	-0.0952
HIPK3	0.458
PKM	-0.605
BCKDK	0.458
CAMK2A	0.458
EEF2K	0.458
AK4	0.458
NME6	-1.04
CSNK2B	0.458
PIK3CD	0.458
PFKFB4	0.458
NAGK	-0.774
COASY	-0.703
MAP3K21	-0.629
ADPGK	0.353
PRKDC	-0.432
PKN3	0.458
NUAK2	-0.00578
STK16	0.458
MAPKAPK2	0.1
CDK6	-0.697
BMPR1A	0.458
TBCK	0.458
PFKFB1	-1.65
TEX14	0.458
SMC1A	-1.9

Not a retest: 4 of the entries above.
Gene	viability robust z-score, no drug
STK16	0.458
MAPKAPK2	0.1
CDK6	-0.697
BMPR1A	0.458
